Experimental data: paper PMC4366279 (PLoS ONE, 2015)
Results are given in words; binding and its absence hold for the method and conditions named. Binding seen in cells or lysates may run through a third protein. Some entries that bind do so weakly or less than the wild type.

What was measured:
Experiment in all cases: pull-down; His6-TbREL1 TNT mixture mixed with an equal volume of untagged KREPA2 TNT mixture, captured on magnetic His-tag isolation beads (Dynabeads); binding buffer 50 mM NaPO4 pH 8.0, 300 mM NaCl, 0.01% Tween 20; 20-30 min at 4°C; three washes; [35S]-methionine-labelled proteins on 10% SDS-PAGE, PhosphorImager; KREPA2-only control for background
[1] = target: T1, T. brucei RNA Editing Ligase 1 (TbREL1), full length wild type (Trypanosoma brucei) (UniProt P86926)
T1 sequence (chain, [35S]-methionine labelled): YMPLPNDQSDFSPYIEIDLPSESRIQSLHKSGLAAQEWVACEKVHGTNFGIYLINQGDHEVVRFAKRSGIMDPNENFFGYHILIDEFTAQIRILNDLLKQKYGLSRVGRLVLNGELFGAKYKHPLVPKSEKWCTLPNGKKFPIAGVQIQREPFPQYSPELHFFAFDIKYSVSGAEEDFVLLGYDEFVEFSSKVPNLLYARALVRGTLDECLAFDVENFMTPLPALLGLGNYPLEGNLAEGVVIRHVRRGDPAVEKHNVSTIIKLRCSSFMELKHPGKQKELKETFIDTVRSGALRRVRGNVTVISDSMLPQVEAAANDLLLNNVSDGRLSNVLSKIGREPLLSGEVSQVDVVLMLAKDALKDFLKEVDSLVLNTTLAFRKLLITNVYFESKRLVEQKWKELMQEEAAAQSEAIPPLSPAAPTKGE

[2] = target: T2, TbREL1 H205A (Trypanosoma brucei) (UniProt P86926)
T2 sequence (chain, [35S]-methionine labelled): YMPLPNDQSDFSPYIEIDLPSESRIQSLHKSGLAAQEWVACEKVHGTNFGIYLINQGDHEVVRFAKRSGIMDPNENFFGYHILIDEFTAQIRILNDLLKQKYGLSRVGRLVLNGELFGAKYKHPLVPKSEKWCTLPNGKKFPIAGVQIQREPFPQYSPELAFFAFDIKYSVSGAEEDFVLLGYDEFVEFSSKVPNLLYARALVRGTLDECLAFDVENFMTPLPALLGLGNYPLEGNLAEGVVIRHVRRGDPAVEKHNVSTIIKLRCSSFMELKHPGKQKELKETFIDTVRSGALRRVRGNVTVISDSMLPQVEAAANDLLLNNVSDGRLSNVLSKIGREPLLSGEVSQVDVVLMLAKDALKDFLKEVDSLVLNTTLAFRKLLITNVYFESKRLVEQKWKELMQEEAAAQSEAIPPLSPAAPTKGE

[3] = target: T3, TbREL1 S303A (Trypanosoma brucei) (UniProt P86926)
T3 sequence (chain, [35S]-methionine labelled): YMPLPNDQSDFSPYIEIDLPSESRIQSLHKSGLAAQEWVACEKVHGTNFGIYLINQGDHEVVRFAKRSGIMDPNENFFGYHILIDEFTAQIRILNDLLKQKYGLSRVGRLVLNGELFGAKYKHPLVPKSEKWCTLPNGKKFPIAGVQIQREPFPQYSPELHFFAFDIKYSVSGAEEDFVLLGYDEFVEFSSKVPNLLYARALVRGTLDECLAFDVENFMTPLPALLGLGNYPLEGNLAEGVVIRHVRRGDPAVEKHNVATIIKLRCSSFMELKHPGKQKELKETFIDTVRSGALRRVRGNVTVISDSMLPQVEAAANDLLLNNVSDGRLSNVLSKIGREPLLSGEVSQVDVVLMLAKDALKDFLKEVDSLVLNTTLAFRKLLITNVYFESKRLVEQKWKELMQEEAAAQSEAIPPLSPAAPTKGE

[4] = target: T4, TbREL1 Y275A (Trypanosoma brucei) (UniProt P86926)
T4 sequence (chain, [35S]-methionine labelled): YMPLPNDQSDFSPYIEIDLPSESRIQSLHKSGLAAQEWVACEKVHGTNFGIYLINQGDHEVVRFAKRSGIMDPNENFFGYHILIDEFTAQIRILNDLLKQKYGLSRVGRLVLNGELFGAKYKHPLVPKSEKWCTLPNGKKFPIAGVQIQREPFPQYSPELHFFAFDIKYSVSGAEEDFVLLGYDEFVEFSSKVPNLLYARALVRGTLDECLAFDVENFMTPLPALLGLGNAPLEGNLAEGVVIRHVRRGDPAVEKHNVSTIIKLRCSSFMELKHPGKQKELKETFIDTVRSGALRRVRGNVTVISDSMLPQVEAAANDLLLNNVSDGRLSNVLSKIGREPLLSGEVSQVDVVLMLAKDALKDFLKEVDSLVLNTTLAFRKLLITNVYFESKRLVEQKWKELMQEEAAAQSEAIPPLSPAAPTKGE

Measured: binding

B1: KREPA2 (natural protein)
chain: MYRRFFRSAAVKHLGTTSAQCLMRATKYPCGAMCRNASSCHPQTLGYQQRFQSTTDKKFHCSVCKKPFRLEMAAKLHLQQAHGGDGSVEAGPGPGVEASSVNVVSTPVPSPISPVERTFVDEEERRPRRMRPTPKPLHQPDRDIPAAAMEEMLGVWDKIGLNRLEGNFVHSTMVMKVFAAPPDVSEIPLYEHVAPEGENPFDSLDHMTTGTVDATYVGHDAFAEVDLVDPFVAAPDQTLNPFRAGKVRNPFTRISPTQREVVKPLQPPQPKEEPLKAPVTPFGQLPMFGQTREPSASFAAAAVSVQAAANPNEVSSPFAAAVSSSPFVGQVASPFAPAQDVAGSPFEASPCAASSPFVTAGGQETSPFAAPSTPASFGQGSLFPPMGTGAPGFTAITETEQRQQELEHGCPTCGKKFSTFEGAAMHSKSKHGIVLESKKVKDRLNRKGVPDLPAYVPSPVDLSSTSPFGTRSAIGASWAETELIPHAQCVSNITIVGRVLDVSQASENVSHVTVFVEGERSGEEETLTLCCFGEVSQKIRGTLKRNATIFASGTLRLHPVYEASNNKYYVSPVVHVSMPTGTLAVIT
modifications: [35S]-methionine labelled
notes: KREPA2 of T. brucei, the KREPA2 open reading frame, expressed untagged (63 kDa); source: in vitro translated (TNT reticulocyte lysate coupled transcription and translation system, Promega)
binds: all assays above
